Measurements taken from patent US6171795.

Legend:
[1] = molecular target: T1, murine CD8-murine CD40 ligand fusion (murine p40) (Mus musculus) (UniProt P27548); assay: inhibition of the protein; conditions: 2'-F pyrimidines (t printed for u); unable to inhibit binding of murine CD8-murine CD40L to cells; data not shown; purified recombinant protein; protein details: murine CD8 fusion; dose not given here
T1 sequence (looked up, limits assumed): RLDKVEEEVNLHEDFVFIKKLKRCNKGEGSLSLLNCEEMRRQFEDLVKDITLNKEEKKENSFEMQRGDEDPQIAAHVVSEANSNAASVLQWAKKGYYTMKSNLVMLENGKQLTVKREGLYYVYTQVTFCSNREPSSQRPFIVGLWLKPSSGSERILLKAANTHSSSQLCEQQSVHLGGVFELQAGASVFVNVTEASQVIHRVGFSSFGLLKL

[2] = molecular target: T2, p40 (murine CD8-human CD40 ligand fusion + p40/p50) (Homo sapiens) (UniProt P29965); assay: binding assay; conditions: 2'-F pyrimidines (t printed for u); biphasic binding curve, plateau RNA binding poor (~15%); assay method not stated; purified recombinant protein
T2 sequence (looked up, limits assumed): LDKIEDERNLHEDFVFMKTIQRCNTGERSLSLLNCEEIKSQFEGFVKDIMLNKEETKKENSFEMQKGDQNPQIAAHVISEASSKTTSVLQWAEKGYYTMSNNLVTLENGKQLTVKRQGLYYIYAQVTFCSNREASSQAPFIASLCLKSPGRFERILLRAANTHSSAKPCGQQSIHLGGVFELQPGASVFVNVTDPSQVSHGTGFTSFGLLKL

[3] = molecular target: T3, CD40 ligand (full-length, on transfected Ltk cells clone #279) (Homo sapiens) (UniProt P29965); assay: flow cytometry; conditions: 2'-F pyrimidines (t printed for u); biotinylated aptamers stain hCD40L Ltk cells, SA-PE, 4 C; protein on the cell surface; label: biotin; variant of p40R6.8 (p40 Aptamer 8)
T3 sequence (looked up): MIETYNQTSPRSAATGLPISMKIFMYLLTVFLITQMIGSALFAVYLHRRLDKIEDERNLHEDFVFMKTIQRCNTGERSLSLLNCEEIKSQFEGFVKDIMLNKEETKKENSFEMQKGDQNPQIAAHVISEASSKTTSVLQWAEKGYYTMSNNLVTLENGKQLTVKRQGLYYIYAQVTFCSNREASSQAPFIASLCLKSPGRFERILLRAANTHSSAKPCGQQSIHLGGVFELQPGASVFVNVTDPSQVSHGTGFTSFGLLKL

Sequence	functional effect of the aptamer [1]	Kd [2] [nM]	binding result [3]
GGGAGGACGAUGCGGAAUGUUUAUUCAUAGAACAGGGUCUACUCAUCACAUCCCCCAGACGACUCGCCCG [p18R6.7 (p18 Aptamer 7)]	not active		
GGGAGGACGAUGCGGAUCUACGCACUCGCAAAAGCAUCAAAUGUGUCCGCCGCCUCAGACGACUCGCCCG [p40R6.8 (p40 Aptamer 8)]	not active	0.2	
GGGAGGACGAUGCGGAUCUACGCACUCGCAAAAGCAUCAAAUGUGUCCGCCGCCUCAGACGACUCGCCCG [p40R6.8-biotin]			binds

For some of these results: A negative result means that nothing was seen under these conditions. Where a protein sequence is shown, tags need not be part of it. For some of these results: At least one result comes from cells or an extract, where the contact may be indirect. For some of these results: The exact form of at least one protein or probe is not confirmed.
